# Measured values: PubChem BioAssay AID2685 (National Center for Advancing Translational Sciences (NCATS), 2010)
# The other results are listed elsewhere or left out. Shown are side measurements of this screen, not its main read-out; they come without a call. Most of these compounds were active or inconclusive in the main read-out, so they are no random draw. Words in brackets tell the shape of the fitted curve; partial curves, single points and poor fits give uncertain potencies.
# Assay: qHTS Assay for Lipid Storage Modulators in Drosophila S3 Cells;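 for cell number change: cells counted by Cell Tracker Red CMTPX staining in the red channel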
# Details: BODIPY lipid droplet fluorescence, 18-24 h; for cell number change: measured here: cell count max response, cells fed with added oleic acid
# In short: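 Drosophila S3 cells got compounds at several concentrations plus oleic acid (400 uM solution). Laser-scanning cytometry with 488 nm excitation read lipid droplets at 500-530 nm and cells at 575-640 nm. Percent activity was relative to 20 uM Triacsin C.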
# [1] = measured here: cell number channel AC50, cells fed with added oleic acid
# [2] = measured here: lipid fluorescence (Fed channel) AC50, cells fed with added oleic acid
Compound,cell number change [%],AC50 [1],AC50 [2]
CC(C)OCC(O)CS(=O)Cc1ccccc1 (stereo not drawn),-36.7,"1.3 µM [falling, partial curve, poor fit]","25.9 µM [falling, partial curve]"
Cc1ccc(OCCCC(=O)Nc2ccc3c(c2)OCCO3)cc1,-4.58,–,"6.51 µM [rising, single point]"
COc1ccccc1NC(=O)Cc1nnc(SCC(=O)Nc2ccc(F)cc2F)n1C,-11.7,–,"0.58 µM [falling, single point]"
CCc1cc(/C(Cc2ccc3ccccc3n2)=N\O)c(O)cc1O,-30.7,"29.1 µM [falling, single point]",–
N#Cc1ccc(OCC(=O)Nc2cccc(S(=O)(=O)NC3=NCCCCC3)c2)cc1,20.5,–,–
CC(C)(O)C#Cc1ccc(C(=O)N2CCN(C(=O)c3ccco3)CC2)cc1,–,–,"0.58 µM [falling, single point]"
COc1ccc(-c2cnn3c(N)c(S(=O)(=O)c4ccccc4)cnc23)cc1,–,"6.51 µM [rising, single point]",–
C/C(=N\NC(=S)NCc1ccccc1)c1ccc(Br)cc1,28,–,–
CC(/C=C/c1ccc2c(c1)OCO2)=N/NC(=O)c1cccnc1,–,"0.517 µM [rising, partial curve, poor fit]","0.082 µM [rising, full curve]"
CC(=O)N1CCC(N(CCCOC(C)C)C(=O)Nc2ccc(C)c(C)c2)CC1,5.68,–,"1.84 µM [rising, full curve, poor fit]"
COCCN(Cc1ccco1)C(=O)C1CCCN(c2ncnc3c2nc2n3CCCCC2)C1 (stereo not drawn),-13.7,–,–
COc1ccc(NC(=O)Cn2nnc(C(=O)NCc3cccs3)c2N)cc1OC,5.37,–,"20.6 µM [rising, single point]"
O=S(=O)(c1ccccc1)N(C1=NCCS1)S(=O)(=O)c1ccccc1,21.9,–,"1.46 µM [falling, partial curve]"
COc1ccccc1-c1nnc(NC(C)=O)s1,-13.4,"6.51 µM [rising, single point]",–
COc1ccccc1CCC(=O)OCC(=O)Nc1ccc(S(N)(=O)=O)cc1,25.4,–,–
Cc1cc(C)nc(NS(=O)(=O)c2ccc(NC(=O)C(C)C)cc2)n1,10.9,–,–
COc1ccc(-c2nc(C#N)c(N3CCN(c4ccccc4)CC3)o2)cc1,7.25,–,"7.31 µM [rising, partial curve, poor fit]"
Clc1ccccc1OCc1nnc(-c2ccccc2Br)o1,0.271,–,–
Cc1ccc(C(c2nnnn2C2CCCCC2)N(C)C2CCCCC2)cc1 (stereo not drawn),-24.5,"0.00411 µM [falling, full curve, poor fit]","0.259 µM [falling, partial curve, poor fit]"

# Another view of some results above.
Compound | cell number change [%] | AC50 [1] | AC50 [2]
CC(/C=C/c1ccc2c(c1)OCO2)=N/NC(=O)c1cccnc1 | – | 0.517 µM [rising, partial curve, poor fit] | 0.082 µM [rising, full curve]
CC(=O)N1CCC(N(CCCOC(C)C)C(=O)Nc2ccc(C)c(C)c2)CC1 | 5.68 | – | 1.84 µM [rising, full curve, poor fit]
COCCN(Cc1ccco1)C(=O)C1CCCN(c2ncnc3c2nc2n3CCCCC2)C1 (stereo not drawn) | -13.7 | – | –
COc1ccc(NC(=O)Cn2nnc(C(=O)NCc3cccs3)c2N)cc1OC | 5.37 | – | 20.6 µM [rising, single point]
O=S(=O)(c1ccccc1)N(C1=NCCS1)S(=O)(=O)c1ccccc1 | 21.9 | – | 1.46 µM [falling, partial curve]
COc1ccccc1-c1nnc(NC(C)=O)s1 | -13.4 | 6.51 µM [rising, single point] | –
COc1ccccc1CCC(=O)OCC(=O)Nc1ccc(S(N)(=O)=O)cc1 | 25.4 | – | –
Cc1cc(C)nc(NS(=O)(=O)c2ccc(NC(=O)C(C)C)cc2)n1 | 10.9 | – | –
COc1ccc(-c2nc(C#N)c(N3CCN(c4ccccc4)CC3)o2)cc1 | 7.25 | – | 7.31 µM [rising, partial curve, poor fit]

# Continued.

Compound,cell number change [%],AC50 [1],AC50 [2]
COc1ccc(NC(=O)CSc2nnc(-c3cccs3)n2N)c(OC)c1,22,–,"8.2 µM [rising, partial curve]"
Cc1cccc(N2CCN(C(=O)c3cc(=O)[nH]c4ccccc34)CC2)c1C,–,"0.326 µM [rising, partial curve, poor fit]",–
Cc1ccc(-c2cc(-c3ccccc3Cl)c(C#N)c(N)n2)o1,-0.337,–,"11.6 µM [rising, partial curve]"
CNC(=O)CC1C(=O)N(c2ccc(F)cc2)C(=S)N1NC(=O)c1ccc(Br)cc1 (stereo not drawn),-22.2,"4.11 µM [rising, partial curve, poor fit]",–
COc1ccc(-c2cc(C(F)(F)F)c(C#N)c(=O)[nH]2)cc1,14.6,–,"0.116 µM [falling, full curve, poor fit]"
COc1cccc(CNC(=O)CNC(=S)N(Cc2ccccc2)Cc2ccccc2F)c1,-30.8,"0.164 µM [falling, full curve, poor fit]","0.0058 µM [falling, full curve, poor fit]"
O=C(CNC(=O)c1ccc(N2C(=O)c3ccccc3C2=O)cc1)OCC(=O)c1cccc2ccccc12,-23.8,–,"10.3 µM [rising, partial curve]"
COc1ccc(/C=C2\Oc3cc(OCC(=O)N4CCC[C@H]4C(=O)O)ccc3C2=O)cc1OC,12.6,–,"0.103 µM [rising, full curve, poor fit]"
O=C(Nc1cc(F)ccc1F)c1cccc(-n2cnnn2)c1,53.8,"20.6 µM [rising, single point]",–
COc1ccccc1CN(C)C(=O)COC(=O)c1cc(C)oc1C,3.2,"0.0411 µM [falling, full curve]",–
CCCCC(=O)Nc1ccc(Br)cc1C(=O)O,8.85,–,"32.6 µM [falling, partial curve]"
CSCCC(NC(=O)c1ccccc1Br)C(=O)N1CCN(C(C)=O)CC1 (stereo not drawn),-5.08,"2.91 µM [falling, single point]","0.82 µM [rising, full curve]"
O=C1CC(Sc2ncccn2)C(=O)N1c1ccccc1C(F)(F)F (stereo not drawn),-87.1,"23.1 µM [falling, single point]","29.1 µM [falling, single point]"
Cc1cc(C)c(S(C)(=O)=O)c(S(=O)c2ccc(Cl)cc2)n1 (stereo not drawn),28.6,–,"29.1 µM [rising, single point]"
O=C(Nc1ccc(F)cc1)C1CCCN(C2=NS(=O)(=O)c3ccccc32)C1 (stereo not drawn),22.3,"6.51 µM [falling, single point]","6.51 µM [falling, single point]"
Cc1ccc(-n2ncc3c2CC(C)(C)CC3NC(=O)c2cc[n+]([O-])cc2)cc1 (stereo not drawn),40.1,"0.517 µM [rising, full curve]",–
CCOc1ccc(Nc2nc(-c3cccnc3)cs2)cc1,11.9,–,"29.1 µM [rising, partial curve]"
CC(Oc1ccccc1)C(=O)OCC(=O)NC(=O)NC1CCCCC1 (stereo not drawn),-17.4,–,–
O=S1(=O)N=C2CCCN2C(c2ccc(F)cc2)N1 (stereo not drawn),-15.4,"0.58 µM [rising, partial curve, poor fit]","0.0731 µM [falling, full curve]"
